Results are given in words; binding and its absence hold for the method and conditions named. Some results given as binding are weak or reduced against the parent protein; the word gives no strength. For part of these data: Tags and fused reporters may be left off the sequences shown.
Tests used:
[1] = molecular target: Spt7 with a C-terminal TAP tag (S. cerevisiae) (UniProt P35177); test: affinity purification (TAP tag) with Western blot; WT SAGA purified by Spt7-TAP (strain CW14), 81 nM on SDS-PAGE, anti-GCN5 blot
[2] = molecular target: Spt7 with a C-terminal TAP tag (S. cerevisiae) (UniProt P35177); test: affinity purification (TAP tag) with Western blot; SAGA-Ada2ΔSWIRM purified by Spt7-TAP (strain CW20), 81 nM and 7× (568 nM) on SDS-PAGE, anti-GCN5 blot
[3] = molecular target: T1, Ada3 with a hexahistidine tag (recombinant) (Saccharomyces cerevisiae) (UniProt P32494); test: co-purification (Ni-NTA, anion exchange); Gcn5, Ada2 (WT or ΔSWIRM) and His-tagged Ada3 co-expressed in E. coli; batch Ni-NTA by the hexahistidine tag on Ada3, then Source Q
T1 sequence: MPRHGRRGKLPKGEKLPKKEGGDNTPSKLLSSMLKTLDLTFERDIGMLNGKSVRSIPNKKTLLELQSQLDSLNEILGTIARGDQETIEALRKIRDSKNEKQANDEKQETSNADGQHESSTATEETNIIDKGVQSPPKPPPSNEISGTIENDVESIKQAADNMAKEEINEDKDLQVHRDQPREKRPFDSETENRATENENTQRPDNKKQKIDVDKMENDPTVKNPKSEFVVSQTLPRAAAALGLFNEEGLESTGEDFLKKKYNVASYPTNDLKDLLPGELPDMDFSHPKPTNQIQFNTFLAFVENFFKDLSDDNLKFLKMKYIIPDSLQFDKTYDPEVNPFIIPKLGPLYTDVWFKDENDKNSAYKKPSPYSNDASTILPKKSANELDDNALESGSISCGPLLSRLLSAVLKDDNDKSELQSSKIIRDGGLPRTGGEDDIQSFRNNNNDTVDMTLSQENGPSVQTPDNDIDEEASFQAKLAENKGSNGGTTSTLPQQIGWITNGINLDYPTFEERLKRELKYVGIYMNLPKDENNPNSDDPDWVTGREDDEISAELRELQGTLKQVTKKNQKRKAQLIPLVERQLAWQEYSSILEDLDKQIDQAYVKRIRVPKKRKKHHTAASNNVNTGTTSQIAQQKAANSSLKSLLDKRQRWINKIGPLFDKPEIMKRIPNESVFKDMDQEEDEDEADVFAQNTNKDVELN

Amino acid sequences for entries named in this document (tags omitted).
UniProt P35177: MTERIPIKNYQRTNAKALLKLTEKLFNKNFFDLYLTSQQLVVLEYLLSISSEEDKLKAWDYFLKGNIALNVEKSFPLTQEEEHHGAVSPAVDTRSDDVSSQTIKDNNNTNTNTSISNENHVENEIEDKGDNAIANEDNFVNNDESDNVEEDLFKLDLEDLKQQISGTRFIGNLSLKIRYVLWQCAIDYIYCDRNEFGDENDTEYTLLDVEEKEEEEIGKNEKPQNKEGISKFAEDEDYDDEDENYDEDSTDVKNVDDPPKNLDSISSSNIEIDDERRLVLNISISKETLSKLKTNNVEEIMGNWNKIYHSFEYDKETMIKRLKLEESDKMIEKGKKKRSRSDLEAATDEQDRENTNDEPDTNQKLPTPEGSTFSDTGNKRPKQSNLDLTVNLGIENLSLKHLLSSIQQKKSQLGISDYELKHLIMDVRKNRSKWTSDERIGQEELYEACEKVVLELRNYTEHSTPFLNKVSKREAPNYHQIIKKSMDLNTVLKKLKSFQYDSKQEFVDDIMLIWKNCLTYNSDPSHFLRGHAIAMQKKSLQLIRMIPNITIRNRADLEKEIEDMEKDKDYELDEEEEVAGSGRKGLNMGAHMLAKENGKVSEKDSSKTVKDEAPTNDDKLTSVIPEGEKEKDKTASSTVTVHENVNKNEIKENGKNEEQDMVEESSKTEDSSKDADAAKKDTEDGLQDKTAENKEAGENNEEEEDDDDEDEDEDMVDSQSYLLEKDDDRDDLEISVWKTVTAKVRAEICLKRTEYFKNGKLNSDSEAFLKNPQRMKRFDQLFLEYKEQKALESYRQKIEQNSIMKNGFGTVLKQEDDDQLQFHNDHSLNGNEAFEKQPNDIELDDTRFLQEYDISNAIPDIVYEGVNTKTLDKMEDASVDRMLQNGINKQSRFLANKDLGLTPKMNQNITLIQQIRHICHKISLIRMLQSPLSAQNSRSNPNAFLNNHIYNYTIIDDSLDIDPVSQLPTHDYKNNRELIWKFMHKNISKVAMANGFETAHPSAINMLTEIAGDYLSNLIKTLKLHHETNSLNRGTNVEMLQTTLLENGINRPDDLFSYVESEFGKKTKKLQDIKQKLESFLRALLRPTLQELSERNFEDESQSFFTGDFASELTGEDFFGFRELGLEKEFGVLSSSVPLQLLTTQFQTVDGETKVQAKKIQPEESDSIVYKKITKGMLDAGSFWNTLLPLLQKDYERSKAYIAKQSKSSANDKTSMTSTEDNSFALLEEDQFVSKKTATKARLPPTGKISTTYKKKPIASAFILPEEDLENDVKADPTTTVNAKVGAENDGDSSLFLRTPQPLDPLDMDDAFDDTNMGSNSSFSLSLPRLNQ
UniProt Q03330: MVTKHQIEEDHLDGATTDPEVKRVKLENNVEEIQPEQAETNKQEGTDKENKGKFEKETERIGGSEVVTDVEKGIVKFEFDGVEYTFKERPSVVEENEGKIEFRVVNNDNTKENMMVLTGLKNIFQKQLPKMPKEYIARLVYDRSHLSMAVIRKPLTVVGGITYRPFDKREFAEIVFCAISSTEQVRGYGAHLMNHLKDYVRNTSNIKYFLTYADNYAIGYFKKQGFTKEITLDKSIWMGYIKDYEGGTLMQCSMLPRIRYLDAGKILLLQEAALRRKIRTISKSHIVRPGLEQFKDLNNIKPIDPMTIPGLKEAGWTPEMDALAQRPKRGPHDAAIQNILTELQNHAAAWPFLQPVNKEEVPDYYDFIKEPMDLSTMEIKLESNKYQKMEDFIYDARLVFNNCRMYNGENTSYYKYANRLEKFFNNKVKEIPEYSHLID

## Gcn5 (endogenous) (from UniProt Q03330 1-439) (enzyme)
[1]
  binding: binds
[2]
  binding: binds weakly

## Gcn5 (recombinant) (from UniProt Q03330 1-439) (enzyme)
[3]
  binding: binds
